No constants are given. Whether binding was seen depends on the method and setting. Some binding calls cover weakened binding; strength is not graded here.

The chains behind the UniProt entries cited, without tags or fusion partners.
UniProt P54646: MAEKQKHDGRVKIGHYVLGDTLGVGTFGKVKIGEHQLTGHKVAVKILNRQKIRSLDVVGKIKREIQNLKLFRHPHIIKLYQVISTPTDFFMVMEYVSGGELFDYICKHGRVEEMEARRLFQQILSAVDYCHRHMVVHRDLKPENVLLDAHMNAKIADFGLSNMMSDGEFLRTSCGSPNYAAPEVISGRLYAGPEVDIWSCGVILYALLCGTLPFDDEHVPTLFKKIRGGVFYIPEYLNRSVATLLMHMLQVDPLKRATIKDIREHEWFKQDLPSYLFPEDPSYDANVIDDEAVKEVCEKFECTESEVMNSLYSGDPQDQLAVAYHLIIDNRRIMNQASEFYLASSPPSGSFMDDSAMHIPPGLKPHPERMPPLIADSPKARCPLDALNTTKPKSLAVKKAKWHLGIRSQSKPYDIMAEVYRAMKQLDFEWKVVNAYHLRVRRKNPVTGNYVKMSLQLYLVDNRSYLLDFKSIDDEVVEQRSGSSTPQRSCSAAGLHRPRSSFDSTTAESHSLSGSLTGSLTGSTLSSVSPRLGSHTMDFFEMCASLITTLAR
UniProt Q9UGI9: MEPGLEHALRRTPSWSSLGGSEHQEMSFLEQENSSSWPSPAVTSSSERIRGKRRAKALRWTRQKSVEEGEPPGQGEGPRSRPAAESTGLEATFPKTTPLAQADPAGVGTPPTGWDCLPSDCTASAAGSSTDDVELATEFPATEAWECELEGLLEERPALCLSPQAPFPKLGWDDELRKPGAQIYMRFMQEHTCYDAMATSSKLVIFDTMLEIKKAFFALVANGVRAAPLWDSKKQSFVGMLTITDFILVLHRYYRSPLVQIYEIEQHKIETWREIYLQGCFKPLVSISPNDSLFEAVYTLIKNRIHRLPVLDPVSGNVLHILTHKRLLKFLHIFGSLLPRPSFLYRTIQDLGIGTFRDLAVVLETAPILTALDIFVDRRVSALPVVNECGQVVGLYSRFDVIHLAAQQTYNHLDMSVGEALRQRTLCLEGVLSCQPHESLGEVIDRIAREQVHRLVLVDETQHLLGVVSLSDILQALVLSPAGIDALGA

This test addresses AMPK α2-subunit (human) (UniProt P54646). As to the kind of experiment: co-purification (Ni2+-affinity and size exclusion chromatography); α, β and γ co-expressed in E. coli from a tricistronic vector; captured via the His6 tag on the α-subunit only (HisTrap HP), re-purified after CaMKKβ activation, Superdex 200; subunits detected by Coomassie SDS/PAGE and MS. For orientation: In gel filtration, larger molecules generally elute earlier.

Regarding “AMPK γ3-subunit (from UniProt Q9UGI9 1-489)”, the binding entry was “binds”.

Source of the values: publication PMC4764975, “Probing the enzyme kinetics, allosteric modulation and activation of α1- and α2-subunit-containing AMP-activated protein kinase (AMPK) heterotrimeric complexes by pharmacological and physiological activators” (Biochemical Journal, 2016).
